{
  "source": "patent US5831002A",
  "about": "(BASF Aktiengesellschaft, priority 1995, dated 1998)",
  "key": {"[1]": {"test": "Fmoc solid-phase peptide synthesis; Fmoc-RINK-resin; PyBrop for the residue after an N-methylamino acid (SPPS); EDCI/HOBt (solution)", "details": "whole synthesis, scale 0.84 mmol"}, "[2]": {"test": "Fmoc solid-phase peptide synthesis; Fmoc-Pro-p-alkoxybenzyl-alcohol-resin; PyBrop for the residue after an N-methylamino acid (SPPS); EDCI/HOBt (solution)", "details": "whole synthesis, scale 3 mmol"}},
  "note": "Some peptides are written in HELM: one residue between dots, names in brackets for other building blocks, links after the first $.",
  "data": [
    {"substance": "PEPTIDE1{[Me2Val].V.[MeVal].P.P.V.F.[am]}$$$$V2.0", "values": [
      {"measurement": "crude mass", "setting": "[1]", "value": 590, "unit": "mg"},
      {"measurement": "isolated mass", "setting": "[1]", "value": 295, "unit": "mg"}
    ]},
    {"substance": "PEPTIDE1{[Me2Val].V.[MeVal].P.[NH-CH(Bzl)-thiazol-2-yl]}$$$$V2.0", "values": [
      {"measurement": "crude mass", "setting": "[2]", "value": 750, "unit": "mg"}
    ]}
  ]
}
